Laboratory results from paper PMC12040169 (PLOS Biology, 2025).
The list shows a part of the results.

Test system: T1, CTL2-GFP (C. trachomatis L2/434/Bu, GFP-expressing)
T1 construct: L2/434/Bu, GFP-expressing
Parameters: species or system HeLa; Intracellular C. trachomatis growth in HeLa cells, bulk GFP fluorescence relative to DMSO
Details: bulk GFP, single well; 28.5 h, 10 µM; inhibitor

Going from `O=C(C1CC1)N1CCC(c2[nH]ncc2-c2ccncc2)CC1` [CBK284238] to `CC(=O)Nc1cccc(-c2nccnc2N2CCCCC2CCO)c1` (stereo not shown) [CBK036591], the “% of control remaining” value falls from 162.892% to 139.516%.

Going from `O=C(NCc1ccc2c(c1)CCCO2)C1CC2C=CC1C21CC1` (stereo not shown) [CBK281503] to `Cn1ccnc1C(NC(=O)[C@@H]1C[C@@H]2C=C[C@H]1C2)c1ccc(F)cc1` (stereo partly shown) [CBK281483], the “% of control remaining” value rises from 122.685% to 127.325%.

Going from `Cc1c(S(=O)(=O)Nc2ccnn2C)cnn1-c1ccccc1` [CBK062079] to `COc1ccc(Br)cc1S(=O)(=O)NCc1cccnc1` [CBK264023], the “% of control remaining” value rises from 111.523% to 112.555%.

Compared with `COc1ccc(CC(=O)N2CCCC2c2cccc(Cc3cccc(F)c3)n2)cc1` (stereo not shown) [CBK286220], `O=C(O)c1nccnc1-c1ccc(Cn2ccc3ccccc32)cc1` [CBK050811] is higher in “% of control remaining” value: 70.527% for the first, 194.223% for the second.

Going from `CS(=O)(=O)N[C@H]1C[C@H]2C(=O)Nc3ccc(-c4ccc(F)cc4F)cc3C(=O)N2C1` [CBK289368] to `O=C(Nc1cccc(C=Cc2ccccn2)c1)c1c[nH]nc1-c1ccc(F)cc1` [CBK295335], the “% of control remaining” value rises from 105.233% to 110.907%.

Compared with `CC(=O)Nc1ccc(S(=O)(=O)N(C)CC(=O)O)cc1` [CBK267570], `CC1CCN(S(=O)(=O)c2ccc(C(=O)N[C@@H](C)C(=O)O)cc2)CC1` [CBK297106] is higher in “% of control remaining” value: 100.815% for the first, 120.829% for the second.

First: COc1ccc(C2CCCN2C(=O)CC2CCN(C(=O)CC3CCCCC3)CC2)cc1 (stereo not shown) [CBK286263]
Second: CC(=O)N1C[C@H](c2cccc(C)c2)[C@H]2CN(C3CCCC3)CC[C@H]21 [CBK283369]
The “% of control remaining” value of the first is lower: 103.778% for the first, 165.169% for the second.

First: Cc1ccc(C)n1C1CC(C)(C)NC(C)(C)C1 [CBK019116]
Second: COC(=O)c1cccc2c(C)c(C)[nH]c12 [CBK001563]
The “% of control remaining” value of the first is higher: 100% for the first, 99.8629% for the second.

First: CN1CCN(c2ccccc2NC(=O)c2cccc3c(Br)cccc23)CC1 [CBK267894]
Second: Cc1ccccc1-c1ccc(C(=O)N2CCN(C)CC2)c(NCc2cccnc2)n1 [CBK076125]
The “% of control remaining” value of the first is lower: 96.7972% for the first, 100% for the second.

First: CN(Cc1ccccc1N1CCOCC1)C(=O)Cc1cn2ccsc2n1 [CBK305830]
Second: CCOC(=O)Cc1csc(SC(C)C(=O)N2CCc3ccccc3C2)n1 (stereo not shown) [CBK305586]
The “% of control remaining” value of the first is lower: 87.6399% for the first, 119.76% for the second.

Going from `c1cnc(N2CCN(CCN3CCOCC3)CC2)c(OCCN2CCOCC2)n1` [CBK082899] to `C=C(C)CN1CCN(Cc2c[nH]nc2C(C)(C)C)CC1` [CBK282827], the “% of control remaining” value rises from 119.638% to 129.293%.

Compared with `CCNC(=O)Nc1ncc(-c2ccc(Oc3ccccc3)cc2)c2cccnc12` [CBK070636], `Cc1ccc(OCc2nnc(SCC(=O)c3cccs3)n2-c2ccccc2)cc1C` [CBK265033] is higher in “% of control remaining” value: 95.0922% for the first, 103.826% for the second.

Compared with `CN(C)/C=N/c1nc2c(ccn2C2CC(O)C(CO)O2)c(=O)[nH]1` (stereo not shown) [CBK201276], `CSC1CCC(N(C)C(=O)NCCc2cn3cccc(C)c3n2)C1` (stereo not shown) [CBK305324] is lower in “% of control remaining” value: 154.3% for the first, 113.989% for the second.

Going from `COc1cc(CNC(=O)NC(=O)C2CCN(C(C)=O)CC2)cc(OC)c1OC` [CBK034833] to `COc1cc(OC)c(NC(=O)C(C)Oc2ccc(Cl)c(C)c2)cc1Cl` (stereo not shown) [CBK269697], the “% of control remaining” value rises from 110.675% to 133.473%.

Compared with `Cc1noc(C)c1NC(=O)c1ccnc2ccccc12` [CBK200302], `CCn1cc(C(=O)Nc2nccs2)c(=O)c2ccc(C)nc21` [CBK307628] is lower in “% of control remaining” value: 158.487% for the first, 124.871% for the second.

Going from `Cc1cc([N+](=O)[O-])ccc1NC(=O)Cn1cnc2c1c(=O)n(C)c(=O)n2C` [CBK263162] to `Cc1ccc(OCC(=O)NCC2CCN(c3cnn(C)c(=O)c3)C2)cc1` (stereo not shown) [CBK306693], the “% of control remaining” value falls from 113.118% to 105.671%.

Compared with `O=C(O)c1ccc(NC(=O)c2ccccc2NC(=O)c2cccc(Br)c2)cc1` [CBK265517], `O=C(Nc1ccc(Cc2ccc(O)c(NC(=O)c3ccccc3F)c2)cc1O)c1ccccc1F` [CBK265766] is lower in “% of control remaining” value: 115.254% for the first, 100% for the second.

Going from `O=C(NC1CCNC1)c1ccc(F)cc1` (stereo not shown) [CBK281632] to `CN1CCN(c2cccc(-c3ccc(CNC(=O)OC(C)(C)C)cc3)n2)CC1` [CBK037641], the “% of control remaining” value rises from 134.735% to 142.809%.

Going from `Cc1ccc2c(c1)cc(C(=O)N1CCOC(C(=O)N3CCCCCC3)C1)n2C` (stereo not shown) [CBK286032] to `CCOC(=O)Nc1ccc2c(c1)N(C(=O)CN1CCN(C)CC1)c1ccccc1CC2` [CBK278194C], the “% of control remaining” value falls from 124.622% to 110.07%.

First: CCN(CC)CCn1c(=N)n(CC(O)c2ccc(C)cc2)c2ccccc21 (stereo not shown) [CBK262914C]
Second: CCN(CC(=O)Nc1ccc(OC)c(Cl)c1)S(=O)(=O)c1ccc2ccccc2c1 [CBK267910]
The “% of control remaining” value of the first is lower: 100% for the first, 124.677% for the second.

First: CCNC(=S)N1CCN(CCNC=C2C(=O)CC(C)(C)CC2=O)CC1 [CBK263661]
Second: O=C(NNCc1ccccc1)c1cc(Br)cnc1N1CCN(C(=O)c2ccco2)CC1 [CBK076460]
The “% of control remaining” value of the first is higher: 128.721% for the first, 103.019% for the second.

Going from `O=C(c1ccco1)N(CCCn1ccnc1)c1nc2c(F)cccc2s1` [CBK287758] to `CCCCc1ccc(-c2nc3ncccc3cc2O)cc1` [CBK073702], the “% of control remaining” value falls from 117.624% to 78.0198%.

First: O=C(O)c1c(Br)c(Br)c(Br)c(Br)c1C(=O)NCCc1ccccc1 [CBK261702]
Second: CC(=O)c1sc2nc(-c3ccccc3)nc(C)c2c1N [CBK115368]
The “% of control remaining” value of the first is higher: 114.15% for the first, 108.776% for the second.

Compared with `Cc1cc(NS(=O)(=O)c2ccc(Nc3nc(-c4ccccn4)cs3)cc2)no1` [CBK263302B], `Cc1[nH]c2ccccc2c1/C=N/NC(=O)C1COc2ccccc2O1` (stereo not shown) [CBK261482] is higher in “% of control remaining” value: 22.6441% for the first, 100% for the second.

First: CCOc1ccccc1/C=N/Nc1ccccc1[N+](=O)[O-] [CBK261673]
Second: CC(C)n1ncc2cc(C(=O)Nc3ncccc3O)cnc21 [CBK305751]
The “% of control remaining” value of the first is lower: 100% for the first, 115.885% for the second.

Compared with `CCCC/C=C/c1cncc(NC2CCC(N)CC2)n1` (stereo not shown) [CBK037827], `COC(=O)CCCC(=O)n1ccn(CCc2cccs2)c1=O` [CBK106612] is lower in “% of control remaining” value: 120.505% for the first, 100% for the second.
